Assay results: patent US20100260817
Negatives hold for the conditions tested.

Sequences of proteins named here, by UniProt entry; tags and fusion partners are left off. A change or cut given only in a name is not applied to a line headed by its entry.
UniProt Q04609: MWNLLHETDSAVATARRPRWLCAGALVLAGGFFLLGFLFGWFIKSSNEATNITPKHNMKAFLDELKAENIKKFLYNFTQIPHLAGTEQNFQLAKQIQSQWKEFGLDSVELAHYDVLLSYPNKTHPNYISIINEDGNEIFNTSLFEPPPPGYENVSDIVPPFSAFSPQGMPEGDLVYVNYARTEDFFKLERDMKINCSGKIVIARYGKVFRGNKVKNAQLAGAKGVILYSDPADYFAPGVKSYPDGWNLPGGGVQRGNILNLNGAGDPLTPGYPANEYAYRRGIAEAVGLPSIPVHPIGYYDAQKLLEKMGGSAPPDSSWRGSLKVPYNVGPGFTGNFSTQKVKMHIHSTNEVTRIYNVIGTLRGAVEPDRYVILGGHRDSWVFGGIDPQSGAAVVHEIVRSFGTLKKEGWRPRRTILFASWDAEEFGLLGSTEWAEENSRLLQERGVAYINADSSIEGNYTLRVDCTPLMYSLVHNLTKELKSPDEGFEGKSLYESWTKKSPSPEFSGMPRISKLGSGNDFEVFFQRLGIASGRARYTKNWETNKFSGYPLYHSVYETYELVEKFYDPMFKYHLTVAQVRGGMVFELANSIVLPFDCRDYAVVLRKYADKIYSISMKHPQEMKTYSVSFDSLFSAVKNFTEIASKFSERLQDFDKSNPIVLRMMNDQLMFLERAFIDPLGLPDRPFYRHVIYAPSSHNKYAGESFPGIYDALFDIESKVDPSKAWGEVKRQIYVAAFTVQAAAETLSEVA

Target: Prostate specific membrane antigen (PSMA) (UniProt Q04609)
Assay: activity in cells
Settings: no depletion of Cav-1 transcript in LNCaP cells versus non-silencing control; described as non-binding mutant aptamer; protein on the cell surface; protein details: endogenous on LNCaP cells; variant of PSMA aptamer with 3' uridine tail; dose not given here

## GGGAGGACGAUGCGGAUCAGCCAUCCUUACGUCACUCCUAAUUUUUUUUUUUUUUUUUUUU [mutant PSMA aptamer (non-binding)]
  functional effect of the aptamer: not active
